Data as given in PubChem BioAssay AID652259 (Drosophila RNAi Screening Center, 2013)
Purpose: 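Genome-wide hunt for genes that control Wingless pathway activity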 (primary screen). Cell system: Drosophila clone 8 imaginal disc epithelial cells. Reagent: long dsRNA against Drosophila genes. Conditions: pathway stimulated by co-transfected Wingless expression plasmid. Measured: 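Firefly luciferase from a tcf-site Wingless reporter, measured alongside co-transfected Renilla luciferase that tracks transfection; pathway stimulated by a Wingless plasmid; the firefly-to-Renilla ratio is not deposited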. Scale: firefly reporter light: higher = more Wg reporter light, before normalisation; Renilla control light: higher = more transfected or surviving cells. Rule for the call: 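Strong candidates differ from their plate mean by at least two out of four per-plate statistical tests; weak candidates meet just one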. Calls: active = candidate regulator (raises or lowers reporter); inactive = not a candidate.
In all, the deposit lists about 22,000 reagents; this is a random part of those that have a named target and a result. Over the whole deposit, 233 (1.1%) got an active call. 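Light values are raw, unnormalised plate reads; the ratio scores behind the reporter calls were not deposited.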 The numbers tell different reagents against one gene apart. Names joined by + are all predicted targets of the reagent. Not given: the amount of reagent, the time to read-out, the dose of the treatment.

predicted target	reagent no.	reporter change call, replicate 1	firefly reporter light, replicate 1	firefly reporter light, replicate 2	Renilla control light, replicate 1	Renilla control light, replicate 2	activity call
NPFR	1		11147		3312		inactive
Spt-I	1		9827		3376		inactive
CG5171	1		8294		4340		inactive
janA	1		6329		2806		inactive
CG12054	1	Wg reporter activity raised	2849	4813	177	448	active
CG2006	1		3186	10761	1557	3958	inactive
CG4935	1		2689	3776	1072	1924	inactive
lic	1		1698	7846	716	1927	inactive
Cpr11A	1		15952		9840		inactive
CG12301	1		2256		1040		inactive
Or30a	1		2684	6948	968	3261	inactive
AkhR	1		10138		4745		inactive
CG5757	1		18347		6035		inactive
Tpl94D	1		3497		1703		inactive
Sfp53D	1		14717		12823		inactive
CG12121	1		21939		10999		inactive
Arl8	1		17069		4208		inactive
Unc-115a	1		3732		1728		inactive
CG2955	1		8052		3728		inactive
CG18666	1		3229	6487	977	3275	inactive
CG18480	1		10924		3639		inactive
CG13021	1		26475		14706		inactive
CG17684	1		15334		10857		inactive
CG17684	2		15372		10547		inactive
CG14151	1		8704		4800		inactive
alphaTub67C	1		9235		2645		inactive
Ca-alpha1D	1		8378		2985		inactive
park	1		3011		1293		inactive
CG16717	1		9292		3819		inactive
Vha36-2	1		6906		3005		inactive
Mlc2	1		2982	8172	1340	2388	inactive
Eps-15	1		15275		3875		inactive
CG13075	1		7820		3427		inactive
Drsl2	1		5681		3525		inactive
Idgf3	1		5052		2156		inactive

4 neighbouring reagents already listed:
predicted target	reagent no.	reporter change call, replicate 1	firefly reporter light, replicate 1	firefly reporter light, replicate 2	Renilla control light, replicate 1	Renilla control light, replicate 2	activity call
park	1		3011		1293		inactive
CG16717	1		9292		3819		inactive
Vha36-2	1		6906		3005		inactive
Mlc2	1		2982	8172	1340	2388	inactive

Next reagents follow.
predicted target	reagent no.	reporter change call, replicate 1	firefly reporter light, replicate 1	firefly reporter light, replicate 2	Renilla control light, replicate 1	Renilla control light, replicate 2	activity call
snk	1		15076		3209		inactive
exp	1		7927		1304		inactive
Hex-t1	1		21792		17174		inactive
ND-15	1		11408		3053		inactive
CG5783	1		3186	6521	1034	2157	inactive
CG14646	1		8469		4217		inactive
CG14646	2		4.79e5	5.60e5	2.13e5	1.45e5	inactive
CG5011	1		13721		6544		inactive
not	1		4294		1734		inactive
mrj	1		7.37e5	7.59e5	2.63e5	67058	inactive
ND-PDSW	1		12026		5171		inactive
BORCS6	1		6721		4917		inactive
CG14126 (retired record)	1		4865		2544		inactive
CG32486	1	Wg reporter activity lowered	3124		826		inactive
CG32486	2		5869		3042		inactive
CG42686 (retired record)	1		11170		3017		inactive
CG42686 (retired record)	2		17129		13988		inactive
spz6	1		11387		4252		inactive
CG10359	1		4021		2001		inactive
mRpS34	1		6778		2746		inactive
CG6163	1		7958		3136		inactive
Muc68E	1		4482	7.71e5	2250	3.83e5	inactive
RpL35A	1		13561		2304		inactive
Obp19d	1		25076		1356		inactive
DIP-theta	1		21750		9074		inactive
DIP-theta	2		2432	4849	757	785	inactive
DIP-theta	3		4240	7715	720	909	inactive
CG6843	1		13218		2304		inactive
ths	1		7349		881		inactive
VhaSFD	1		7559		1986		inactive
CG31075	1		7600		2909		inactive
Nup153	1		1306	4257	630	587	inactive
mRpS26	1		8391		2368		inactive
sordd2 + sordd1	1		4205	6971	1504	2822	inactive
eIF3k	1		11768		2341		inactive
ais	1		3572		1750		inactive
slf	1		2053	7595	842	2626	inactive
Cpr67Fa2	1		6982		3216		inactive
CG32260	1		2492		1712		inactive
CG33770	1		33824		6256		inactive
TwdlO	1		8405		4593		inactive
RNaseX25	1		3716		2041		inactive
Hmt-1	1		3856	6428	1400	1305	inactive
slmb	1	Wg reporter activity raised	28007	32889	1172	1816	active
CG16815	1		2586	8305	1063	3335	inactive
Vps20	1		2261	8141	578	2391	inactive
CG17298	1		35862		6649		inactive
CG31205	1		3200		1834		inactive
CG43338	1		4.89e5	5.80e5	1.28e5	1.27e5	inactive
Ggamma1	1		9431		3033		inactive
Socs36E	1		13874		4663		inactive
CG18088	1		2157	4728	605	2428	inactive
CG11122	1		4705	9620	1594	4027	inactive
Vps16B	1		8109		1995		inactive
PGS1	1		16417		3750		inactive
Nagk	1		4930		2357		inactive
ThrRS	1		6976		2195		inactive
CR43096 + CG43060	1		5015		2017		inactive
